{"source": "patent US11739385B2", "about": "“Discovery of a somatic mutation in MYD88 gene in lymphoplasmacytic lymphoma” (Dana-Farber Cancer Institute, Inc., priority 2011, dated 2023)", "key": {"[1]": {"system": "MYD88 L265P expressing WM cells", "assay": "Apoptosis analysis by Annexin V and PI staining", "type": "cell-based", "details": "synergism assessed with CalcuSyn software", "description": "Western blot analysis was performed using total and phospho-specific antibodies in MYD88 L265P expressing WM cells, BCWM.1 and MCWL-1 following MYD88 knockdown by lentiviral transduction, and/or use of MYD88 or IRAK signal inhibitors. […] Annexin V/PI staining was used to assess cell survival, and synergism assessed with CalcuSyn software."}, "[2]": {"system": "ERK1/2", "assay": "Western blot of downstream MAPK signaling (ERK1/2 phosphorylation) in WM cell lines", "type": "cell-based", "details": "WM cell lines BCWM.1 and MWCL-1, compared to multiple myeloma cell lines ANBL6 and INA6"}, "[3]": {"system": "Stat3", "assay": "Western blot of downstream Stat3 signaling (Stat3 phosphorylation) in WM cell lines", "type": "cell-based", "details": "WM cell lines BCWM.1 and MWCL-1, compared to multiple myeloma cell lines ANBL6 and INA6"}, "[4]": {"system": "primary WM patients bone marrow tumor cells", "assay": "Apoptosis analysis by Annexin V and PI staining in primary patient cells", "type": "cell-based, human", "details": "PCI-32765 (1.0 μM) + MYD88 inhibitory peptides (100 μM), 24 hrs"}, "[5]": {"system": "IKBα", "assay": "Western blot of downstream NF-kB signaling (IKBα phosphorylation) in WM cell lines", "type": "cell-based", "details": "WM cell lines BCWM.1 and MWCL-1, compared to multiple myeloma cell lines ANBL6 and INA6"}}, "note": "Entries after “also recorded” stand apart in the source; their conditions may differ. For at least one compound, name, drawing or mass did not settle the structure.", "data": [{"smiles": "C=CC(=O)N1CCC[C@@H](n2nc(-c3ccc(Oc4ccccc4)cc3)c3c(N)ncnc32)C1", "note": "[PCI-32765, Ibrutinib]", "values": [{"measurement": "tumor cell killing in combination with an IRAK 1/4 kinase inhibitor", "setting": "[1]", "result": "synergistic tumor cell killing"}, {"measurement": "phosphorylation of ERK1/2 (MAPK signaling)", "setting": "[2]", "result": "significantly reduced; also recorded: significantly reducing"}, {"measurement": "phosphorylation of Stat3", "setting": "[3]", "result": "significantly reduced; also recorded: significantly reducing"}, {"measurement": "tumor cell killing in combination with a MYD88 pathway inhibitor", "setting": "[4]", "result": "robust tumor cell killing"}, {"measurement": "phosphorylation of IKBα (NF-kB signaling)", "setting": "[5]", "result": "significantly reduced; also recorded: significantly reducing"}]}]}
